Laboratory results reported in article PMC10854934.
These are yes or no findings as the source states them, for the method shown. In cells and extracts the contact can be indirect. Some binding calls cover weakened binding; strength is not graded here.

Amino acid sequences for entries named in this document (tags omitted).
UniProt P49407: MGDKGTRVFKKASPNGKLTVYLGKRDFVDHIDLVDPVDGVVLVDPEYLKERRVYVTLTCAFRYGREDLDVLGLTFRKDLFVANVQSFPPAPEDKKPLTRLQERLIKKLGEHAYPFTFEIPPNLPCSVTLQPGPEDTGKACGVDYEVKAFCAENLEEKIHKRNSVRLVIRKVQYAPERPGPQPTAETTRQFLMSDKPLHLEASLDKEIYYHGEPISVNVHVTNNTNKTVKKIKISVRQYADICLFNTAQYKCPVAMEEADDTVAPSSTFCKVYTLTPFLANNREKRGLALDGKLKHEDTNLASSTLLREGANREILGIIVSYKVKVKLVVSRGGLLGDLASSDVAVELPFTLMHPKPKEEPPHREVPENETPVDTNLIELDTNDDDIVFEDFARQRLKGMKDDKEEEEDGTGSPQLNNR
UniProt P41143: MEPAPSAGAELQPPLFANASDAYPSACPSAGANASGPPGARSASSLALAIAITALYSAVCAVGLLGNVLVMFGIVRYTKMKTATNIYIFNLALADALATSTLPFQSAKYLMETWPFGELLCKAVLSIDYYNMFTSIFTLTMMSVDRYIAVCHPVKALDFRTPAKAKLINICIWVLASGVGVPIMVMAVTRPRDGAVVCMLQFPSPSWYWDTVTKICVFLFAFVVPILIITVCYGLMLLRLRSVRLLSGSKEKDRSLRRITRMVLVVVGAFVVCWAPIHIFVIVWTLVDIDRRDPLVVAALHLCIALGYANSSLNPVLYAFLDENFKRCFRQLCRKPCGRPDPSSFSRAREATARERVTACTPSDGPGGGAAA

Target: β-arrestin 1 tagged with CFP (CFP-βarr1) (UniProt P49407)
Experiment: co-IP; nuclear extracts (100 μg) of N/TERT-1 keratinocytes overexpressing GFP-DOPr and CFP-βarr1, without or with 100 nM Met-ENK for 5 min; anti-CFP antibody overnight at 4 °C in 50 mM Tris-HCl, 150 mM NaCl, 0.5% NP40; Protein G and Protein A Dynabeads; Western blot for βarr1 and DOPr

binding: binds
Substance: delta-opioid receptor tagged with GFP (DOPr-GFP) (from UniProt P41143 1-372)
